Among the data in the supplement of paper PMC10849652 are log2 fold change values, retold here.

Protein sequences, listed by entry. Tags and fused reporters are not part of them. Lines headed by an entry give the natural chain unless they say otherwise; changes in a name come on top.
UniProt Q9BU76: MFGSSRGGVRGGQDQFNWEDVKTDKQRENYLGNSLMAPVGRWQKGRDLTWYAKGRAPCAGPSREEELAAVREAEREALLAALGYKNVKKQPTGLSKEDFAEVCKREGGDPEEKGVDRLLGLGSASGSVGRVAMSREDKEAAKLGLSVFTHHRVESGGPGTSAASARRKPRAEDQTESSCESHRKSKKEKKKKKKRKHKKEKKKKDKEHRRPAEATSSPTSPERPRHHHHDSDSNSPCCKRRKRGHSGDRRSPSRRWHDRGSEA
UniProt O96007: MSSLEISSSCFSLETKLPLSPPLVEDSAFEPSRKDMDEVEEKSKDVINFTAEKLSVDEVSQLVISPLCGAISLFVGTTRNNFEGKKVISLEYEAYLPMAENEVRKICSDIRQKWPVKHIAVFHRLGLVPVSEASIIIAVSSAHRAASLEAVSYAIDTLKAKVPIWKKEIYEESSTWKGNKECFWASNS
UniProt Q96EY8: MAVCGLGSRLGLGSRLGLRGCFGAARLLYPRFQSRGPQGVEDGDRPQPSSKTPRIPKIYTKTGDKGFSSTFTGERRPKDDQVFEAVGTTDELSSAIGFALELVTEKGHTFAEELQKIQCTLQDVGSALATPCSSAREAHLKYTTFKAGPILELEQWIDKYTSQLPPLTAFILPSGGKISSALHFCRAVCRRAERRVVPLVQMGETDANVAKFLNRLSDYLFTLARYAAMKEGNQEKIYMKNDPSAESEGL
UniProt P25325: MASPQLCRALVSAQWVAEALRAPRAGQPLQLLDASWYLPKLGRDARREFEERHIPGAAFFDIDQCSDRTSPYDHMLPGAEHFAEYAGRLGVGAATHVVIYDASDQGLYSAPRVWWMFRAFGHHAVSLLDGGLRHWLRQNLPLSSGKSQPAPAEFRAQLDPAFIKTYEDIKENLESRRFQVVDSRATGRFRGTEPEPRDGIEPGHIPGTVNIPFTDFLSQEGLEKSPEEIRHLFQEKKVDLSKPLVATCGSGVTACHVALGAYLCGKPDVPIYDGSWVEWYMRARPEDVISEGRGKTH
UniProt P34949: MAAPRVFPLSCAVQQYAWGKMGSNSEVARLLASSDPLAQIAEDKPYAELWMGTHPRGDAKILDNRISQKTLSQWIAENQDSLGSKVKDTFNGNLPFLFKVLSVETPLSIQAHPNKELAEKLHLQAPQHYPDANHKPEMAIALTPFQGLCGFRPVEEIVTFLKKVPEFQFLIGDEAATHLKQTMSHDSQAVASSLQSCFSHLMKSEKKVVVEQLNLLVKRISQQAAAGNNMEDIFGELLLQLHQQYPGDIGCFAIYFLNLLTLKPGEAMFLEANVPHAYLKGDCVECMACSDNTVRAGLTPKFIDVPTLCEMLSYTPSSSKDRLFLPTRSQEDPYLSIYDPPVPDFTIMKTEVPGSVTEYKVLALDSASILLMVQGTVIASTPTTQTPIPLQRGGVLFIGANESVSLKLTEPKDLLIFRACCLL
UniProt P14174: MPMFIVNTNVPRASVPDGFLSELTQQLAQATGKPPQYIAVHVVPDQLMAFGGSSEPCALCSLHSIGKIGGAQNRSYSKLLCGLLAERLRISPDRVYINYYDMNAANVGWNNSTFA
UniProt Q9NXC5: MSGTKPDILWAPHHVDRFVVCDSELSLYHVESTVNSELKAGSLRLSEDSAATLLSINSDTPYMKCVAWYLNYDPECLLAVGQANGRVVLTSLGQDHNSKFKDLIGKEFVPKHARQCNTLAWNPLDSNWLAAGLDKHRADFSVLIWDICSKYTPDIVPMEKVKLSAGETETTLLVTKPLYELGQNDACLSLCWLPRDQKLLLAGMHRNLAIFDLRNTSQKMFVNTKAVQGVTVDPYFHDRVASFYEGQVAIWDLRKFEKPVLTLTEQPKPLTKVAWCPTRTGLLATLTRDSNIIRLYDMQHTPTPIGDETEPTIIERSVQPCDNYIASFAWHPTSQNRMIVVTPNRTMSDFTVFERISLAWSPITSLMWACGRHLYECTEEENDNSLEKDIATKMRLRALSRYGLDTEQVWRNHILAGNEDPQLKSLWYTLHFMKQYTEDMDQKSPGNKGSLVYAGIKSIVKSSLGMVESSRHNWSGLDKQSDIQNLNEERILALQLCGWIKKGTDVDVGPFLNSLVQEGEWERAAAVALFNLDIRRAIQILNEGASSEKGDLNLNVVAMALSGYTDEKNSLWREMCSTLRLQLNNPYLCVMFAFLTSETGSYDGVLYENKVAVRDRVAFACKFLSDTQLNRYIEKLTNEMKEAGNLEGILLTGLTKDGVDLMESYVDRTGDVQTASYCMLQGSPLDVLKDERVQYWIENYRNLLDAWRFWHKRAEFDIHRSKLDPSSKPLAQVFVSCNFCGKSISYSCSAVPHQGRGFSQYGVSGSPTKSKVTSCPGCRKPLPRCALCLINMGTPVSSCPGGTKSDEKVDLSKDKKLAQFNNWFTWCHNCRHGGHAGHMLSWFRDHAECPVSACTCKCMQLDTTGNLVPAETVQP
UniProt P49959: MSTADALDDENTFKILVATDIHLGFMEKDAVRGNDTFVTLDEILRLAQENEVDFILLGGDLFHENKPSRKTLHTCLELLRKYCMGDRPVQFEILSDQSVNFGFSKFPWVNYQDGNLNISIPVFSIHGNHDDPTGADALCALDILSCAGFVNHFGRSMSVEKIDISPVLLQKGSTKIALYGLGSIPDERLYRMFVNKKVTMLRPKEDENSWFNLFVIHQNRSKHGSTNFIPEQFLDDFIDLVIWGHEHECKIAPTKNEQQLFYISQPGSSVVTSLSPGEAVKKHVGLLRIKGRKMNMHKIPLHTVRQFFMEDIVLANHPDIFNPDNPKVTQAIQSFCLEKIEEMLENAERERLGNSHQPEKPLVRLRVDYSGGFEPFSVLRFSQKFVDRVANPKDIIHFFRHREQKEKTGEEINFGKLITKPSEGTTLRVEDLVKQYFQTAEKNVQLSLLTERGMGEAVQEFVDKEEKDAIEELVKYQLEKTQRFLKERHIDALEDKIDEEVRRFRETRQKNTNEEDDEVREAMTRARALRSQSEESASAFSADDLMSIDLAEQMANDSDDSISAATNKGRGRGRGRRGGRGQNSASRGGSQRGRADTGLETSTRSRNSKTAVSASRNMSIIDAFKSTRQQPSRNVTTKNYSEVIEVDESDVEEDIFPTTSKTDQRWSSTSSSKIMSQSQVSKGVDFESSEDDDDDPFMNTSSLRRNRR
UniProt A9UHW6: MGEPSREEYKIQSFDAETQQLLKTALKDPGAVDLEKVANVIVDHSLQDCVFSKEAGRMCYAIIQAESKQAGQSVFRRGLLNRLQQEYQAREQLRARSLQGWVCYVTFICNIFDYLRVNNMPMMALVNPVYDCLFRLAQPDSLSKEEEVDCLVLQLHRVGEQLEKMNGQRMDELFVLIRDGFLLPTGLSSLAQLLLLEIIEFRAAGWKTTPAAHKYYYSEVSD
UniProt Q8N4C8: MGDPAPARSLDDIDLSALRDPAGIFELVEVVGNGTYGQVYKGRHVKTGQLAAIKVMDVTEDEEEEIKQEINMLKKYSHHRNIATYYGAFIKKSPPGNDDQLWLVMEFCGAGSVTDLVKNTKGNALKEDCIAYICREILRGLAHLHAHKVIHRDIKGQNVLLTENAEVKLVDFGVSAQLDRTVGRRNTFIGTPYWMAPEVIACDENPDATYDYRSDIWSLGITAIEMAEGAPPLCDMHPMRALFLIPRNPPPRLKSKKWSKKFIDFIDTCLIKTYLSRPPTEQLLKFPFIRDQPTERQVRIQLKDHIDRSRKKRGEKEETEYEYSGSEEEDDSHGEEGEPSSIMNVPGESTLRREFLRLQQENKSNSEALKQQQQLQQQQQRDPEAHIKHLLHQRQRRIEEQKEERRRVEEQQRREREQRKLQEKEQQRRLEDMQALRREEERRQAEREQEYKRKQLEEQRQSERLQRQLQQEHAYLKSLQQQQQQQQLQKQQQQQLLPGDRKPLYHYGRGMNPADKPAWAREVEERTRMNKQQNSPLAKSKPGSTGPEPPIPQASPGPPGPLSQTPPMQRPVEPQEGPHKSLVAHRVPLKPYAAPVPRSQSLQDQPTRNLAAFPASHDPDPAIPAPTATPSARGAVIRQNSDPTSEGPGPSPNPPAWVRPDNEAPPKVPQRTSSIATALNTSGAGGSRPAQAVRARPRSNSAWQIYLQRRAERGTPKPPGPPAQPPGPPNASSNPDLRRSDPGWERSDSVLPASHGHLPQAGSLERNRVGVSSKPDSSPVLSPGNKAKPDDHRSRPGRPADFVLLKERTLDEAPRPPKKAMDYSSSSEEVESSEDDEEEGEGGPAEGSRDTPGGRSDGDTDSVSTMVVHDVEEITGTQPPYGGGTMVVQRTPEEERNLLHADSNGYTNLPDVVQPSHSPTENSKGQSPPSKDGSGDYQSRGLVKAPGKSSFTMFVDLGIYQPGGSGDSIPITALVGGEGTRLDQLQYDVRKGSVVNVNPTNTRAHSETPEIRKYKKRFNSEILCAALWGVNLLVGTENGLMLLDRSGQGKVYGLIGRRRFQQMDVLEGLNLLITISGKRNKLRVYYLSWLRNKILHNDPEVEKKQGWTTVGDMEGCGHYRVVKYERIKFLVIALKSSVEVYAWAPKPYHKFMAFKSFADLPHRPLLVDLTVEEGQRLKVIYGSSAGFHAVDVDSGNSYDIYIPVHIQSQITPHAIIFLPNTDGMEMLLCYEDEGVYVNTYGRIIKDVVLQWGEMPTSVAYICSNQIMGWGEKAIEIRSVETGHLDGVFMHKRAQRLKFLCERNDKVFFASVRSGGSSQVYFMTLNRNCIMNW

This is one part of the list.

Compound in the assay: CS(=O)(=O)N1CCN(Cc2cc3nc(-c4cccc5[nH]ncc45)nc(N4CCOCC4)c3s2)CC1 [pictilisib]
Description: log2 fold change, soluble protein after heating vs DMSO (PISA); higher = thermal stabilisation; K562 cells, 10 uM, 30 min; active = over 0.2 and 3.5 SD of the protein, either way, in both replicates (recomputed). In outline:
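K562 cells (2×10^6 cells/mL) were treated with 10 μM compound for 30 min, and aliquots were heated for 3 min over 48°C-58°C. Pooled aliquots were extracted in PBS with 0.5% NP-40 at 4°C, and the supernatant after 21,000xg for 90 min was measured by TMTpro 16plex LC-MS/MS with channel sums equalised. Reported thermal stability, relative to control samples and from duplicates, is a log2 fold change.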
Turning to MRPL41 (UniProt Q8IXM3), the log2 fold change is inactive: 0.065. Regarding MMTAG2 (UniProt Q9BU76), the log2 fold change was inactive: -0.017. In the case of MOCS2 (UniProt O96007), the log2 fold change was inactive: 0.111. Turning to MMAB (UniProt Q96EY8), the log2 fold change was inactive: 0. With MPST isoform 2 (UniProt P25325), the log2 fold change was inactive: 0.119. With MRPL53 (UniProt Q96EL3) the figure was inactive: -0.069; with MPI (UniProt P34949), inactive: -0.147; with MIF (UniProt P14174), inactive: -0.141. In the case of MRPL50 (UniProt Q8N5N7), the log2 fold change is inactive: -0.067.

Take MRPL51 (UniProt Q4U2R6): the log2 fold change is inactive: -0.101.

Consider MRPL42 (UniProt Q9Y6G3), for which the log2 fold change was inactive: -0.182. For the target MRPL45 (UniProt Q9BRJ2), the log2 fold change is inactive: 0.013. For the target MIOS (UniProt Q9NXC5), the log2 fold change is inactive: -0.044. With MRE11 isoform 3 (UniProt P49959) the figure was inactive: -0.028; with MRPL19 (UniProt P49406), inactive: -0.011.

Consider MIEF1 (UniProt L0R8F8), for which the log2 fold change was inactive: 0.033.

On to MRPL28 (UniProt Q13084), for which the log2 fold change was inactive: -0.048. In the case of MIF4GD isoform 3 (UniProt A9UHW6), the log2 fold change is inactive: 0.088. For the target MRPL4 (UniProt Q9BYD3), the log2 fold change was inactive: 0.017. Turning to MRPL46 (UniProt Q9H2W6), the log2 fold change is inactive: 0.011. The same measure for MINK1 (UniProt Q8N4C8): inactive: -0.019.

Take MRPL20 (UniProt Q9BYC9): the log2 fold change was inactive: 0.018. With MRPL22 (UniProt Q9NWU5), the log2 fold change is inactive: -0.113.
